No constants are given. Whether binding was seen depends on the method and setting. Binding seen in cells or lysates may run through a third protein.
Target: T1, Excitatory Amino Acid Carrier 1 (EAAC1), rat (rat (endogenous in hippocampus, cortex, heart and C6 glioma cells)) (UniProt P51907)
T1 sequence: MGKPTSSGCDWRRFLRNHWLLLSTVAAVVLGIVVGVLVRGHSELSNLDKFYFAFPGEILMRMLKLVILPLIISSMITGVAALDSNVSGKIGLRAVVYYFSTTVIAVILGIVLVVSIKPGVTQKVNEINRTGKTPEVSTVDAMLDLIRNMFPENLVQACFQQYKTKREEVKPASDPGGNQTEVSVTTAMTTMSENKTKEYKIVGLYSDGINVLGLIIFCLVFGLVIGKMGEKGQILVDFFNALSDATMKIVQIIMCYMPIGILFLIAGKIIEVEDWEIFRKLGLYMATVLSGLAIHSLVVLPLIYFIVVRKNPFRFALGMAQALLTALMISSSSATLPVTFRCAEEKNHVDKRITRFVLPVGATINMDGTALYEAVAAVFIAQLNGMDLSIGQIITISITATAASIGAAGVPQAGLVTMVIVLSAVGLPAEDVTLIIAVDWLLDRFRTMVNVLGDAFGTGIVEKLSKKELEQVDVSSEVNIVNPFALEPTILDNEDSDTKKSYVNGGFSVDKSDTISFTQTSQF
Experiment: co-IP; mitochondrial protein extracts from rat hippocampus and cortex; immunoprecipitation with mouse monoclonal anti-EAAC1 or anti-NCX1 (R3F1) antibody, A-Sepharose beads, western blot; normal mouse serum as negative control

The chains behind the UniProt entries cited, without tags or fusion partners. Residues count along the entry.
UniProt P70549, residues 31-927: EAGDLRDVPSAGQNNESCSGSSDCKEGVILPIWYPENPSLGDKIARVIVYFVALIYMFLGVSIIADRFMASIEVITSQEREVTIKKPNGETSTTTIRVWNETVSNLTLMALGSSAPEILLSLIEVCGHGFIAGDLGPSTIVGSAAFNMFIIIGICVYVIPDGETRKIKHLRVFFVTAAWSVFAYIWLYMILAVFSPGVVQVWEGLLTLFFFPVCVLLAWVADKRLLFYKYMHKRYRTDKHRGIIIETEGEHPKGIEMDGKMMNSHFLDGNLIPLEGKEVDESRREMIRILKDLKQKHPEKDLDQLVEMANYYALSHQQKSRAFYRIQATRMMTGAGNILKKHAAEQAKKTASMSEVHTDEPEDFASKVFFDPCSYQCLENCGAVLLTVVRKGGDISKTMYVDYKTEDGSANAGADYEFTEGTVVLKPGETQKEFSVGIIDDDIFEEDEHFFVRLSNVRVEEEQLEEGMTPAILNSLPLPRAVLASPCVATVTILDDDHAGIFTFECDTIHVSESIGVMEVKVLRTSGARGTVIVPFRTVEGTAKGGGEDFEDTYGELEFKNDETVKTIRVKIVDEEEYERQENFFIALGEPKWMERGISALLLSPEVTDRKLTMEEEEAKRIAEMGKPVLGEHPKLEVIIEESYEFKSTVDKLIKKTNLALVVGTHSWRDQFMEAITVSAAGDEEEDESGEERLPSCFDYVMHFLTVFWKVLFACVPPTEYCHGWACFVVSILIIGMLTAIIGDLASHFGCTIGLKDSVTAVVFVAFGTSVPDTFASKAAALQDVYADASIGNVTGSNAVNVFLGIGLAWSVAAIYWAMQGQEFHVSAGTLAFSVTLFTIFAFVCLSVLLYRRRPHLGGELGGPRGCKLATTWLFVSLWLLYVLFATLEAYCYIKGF
UniProt P48768, residues 21-921: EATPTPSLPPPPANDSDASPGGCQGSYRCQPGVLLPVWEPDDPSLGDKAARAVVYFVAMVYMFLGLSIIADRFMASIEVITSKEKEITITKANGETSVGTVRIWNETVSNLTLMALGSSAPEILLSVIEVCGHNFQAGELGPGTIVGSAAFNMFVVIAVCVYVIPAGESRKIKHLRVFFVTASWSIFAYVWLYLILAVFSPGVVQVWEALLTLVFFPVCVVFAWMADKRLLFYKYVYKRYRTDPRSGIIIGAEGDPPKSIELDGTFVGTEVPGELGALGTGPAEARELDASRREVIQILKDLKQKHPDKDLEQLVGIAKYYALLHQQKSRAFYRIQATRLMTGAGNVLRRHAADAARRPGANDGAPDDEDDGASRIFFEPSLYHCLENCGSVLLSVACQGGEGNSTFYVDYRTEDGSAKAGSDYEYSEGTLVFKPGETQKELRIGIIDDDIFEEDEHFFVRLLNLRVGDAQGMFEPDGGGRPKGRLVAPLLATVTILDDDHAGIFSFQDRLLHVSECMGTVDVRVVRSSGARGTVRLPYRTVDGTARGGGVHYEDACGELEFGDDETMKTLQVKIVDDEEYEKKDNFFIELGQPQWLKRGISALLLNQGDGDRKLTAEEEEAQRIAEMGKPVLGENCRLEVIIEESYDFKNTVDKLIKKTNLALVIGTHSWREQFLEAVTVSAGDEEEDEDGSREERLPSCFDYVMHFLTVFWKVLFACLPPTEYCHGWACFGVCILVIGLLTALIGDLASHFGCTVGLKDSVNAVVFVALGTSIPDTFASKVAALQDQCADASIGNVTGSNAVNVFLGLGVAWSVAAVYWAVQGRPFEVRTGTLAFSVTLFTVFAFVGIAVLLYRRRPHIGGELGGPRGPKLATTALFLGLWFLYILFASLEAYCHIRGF

binding | Substance
no binding | Na+/Ca2+ exchanger 3 (NCX3), rat (from UniProt P70549 31-927)
no binding | Na+/Ca2+ exchanger 2 (NCX2), rat (from UniProt P48768 21-921)

— paper PMC3316532
